Experimental data from the supplement of paper PMC10849652.
Some of the results follow.

By UniProt entry, the sequences of proteins in these tests, tags left out. Where a name states a change or a piece, a line headed by the entry shows the natural chain unless it says otherwise.
UniProt Q5VT06: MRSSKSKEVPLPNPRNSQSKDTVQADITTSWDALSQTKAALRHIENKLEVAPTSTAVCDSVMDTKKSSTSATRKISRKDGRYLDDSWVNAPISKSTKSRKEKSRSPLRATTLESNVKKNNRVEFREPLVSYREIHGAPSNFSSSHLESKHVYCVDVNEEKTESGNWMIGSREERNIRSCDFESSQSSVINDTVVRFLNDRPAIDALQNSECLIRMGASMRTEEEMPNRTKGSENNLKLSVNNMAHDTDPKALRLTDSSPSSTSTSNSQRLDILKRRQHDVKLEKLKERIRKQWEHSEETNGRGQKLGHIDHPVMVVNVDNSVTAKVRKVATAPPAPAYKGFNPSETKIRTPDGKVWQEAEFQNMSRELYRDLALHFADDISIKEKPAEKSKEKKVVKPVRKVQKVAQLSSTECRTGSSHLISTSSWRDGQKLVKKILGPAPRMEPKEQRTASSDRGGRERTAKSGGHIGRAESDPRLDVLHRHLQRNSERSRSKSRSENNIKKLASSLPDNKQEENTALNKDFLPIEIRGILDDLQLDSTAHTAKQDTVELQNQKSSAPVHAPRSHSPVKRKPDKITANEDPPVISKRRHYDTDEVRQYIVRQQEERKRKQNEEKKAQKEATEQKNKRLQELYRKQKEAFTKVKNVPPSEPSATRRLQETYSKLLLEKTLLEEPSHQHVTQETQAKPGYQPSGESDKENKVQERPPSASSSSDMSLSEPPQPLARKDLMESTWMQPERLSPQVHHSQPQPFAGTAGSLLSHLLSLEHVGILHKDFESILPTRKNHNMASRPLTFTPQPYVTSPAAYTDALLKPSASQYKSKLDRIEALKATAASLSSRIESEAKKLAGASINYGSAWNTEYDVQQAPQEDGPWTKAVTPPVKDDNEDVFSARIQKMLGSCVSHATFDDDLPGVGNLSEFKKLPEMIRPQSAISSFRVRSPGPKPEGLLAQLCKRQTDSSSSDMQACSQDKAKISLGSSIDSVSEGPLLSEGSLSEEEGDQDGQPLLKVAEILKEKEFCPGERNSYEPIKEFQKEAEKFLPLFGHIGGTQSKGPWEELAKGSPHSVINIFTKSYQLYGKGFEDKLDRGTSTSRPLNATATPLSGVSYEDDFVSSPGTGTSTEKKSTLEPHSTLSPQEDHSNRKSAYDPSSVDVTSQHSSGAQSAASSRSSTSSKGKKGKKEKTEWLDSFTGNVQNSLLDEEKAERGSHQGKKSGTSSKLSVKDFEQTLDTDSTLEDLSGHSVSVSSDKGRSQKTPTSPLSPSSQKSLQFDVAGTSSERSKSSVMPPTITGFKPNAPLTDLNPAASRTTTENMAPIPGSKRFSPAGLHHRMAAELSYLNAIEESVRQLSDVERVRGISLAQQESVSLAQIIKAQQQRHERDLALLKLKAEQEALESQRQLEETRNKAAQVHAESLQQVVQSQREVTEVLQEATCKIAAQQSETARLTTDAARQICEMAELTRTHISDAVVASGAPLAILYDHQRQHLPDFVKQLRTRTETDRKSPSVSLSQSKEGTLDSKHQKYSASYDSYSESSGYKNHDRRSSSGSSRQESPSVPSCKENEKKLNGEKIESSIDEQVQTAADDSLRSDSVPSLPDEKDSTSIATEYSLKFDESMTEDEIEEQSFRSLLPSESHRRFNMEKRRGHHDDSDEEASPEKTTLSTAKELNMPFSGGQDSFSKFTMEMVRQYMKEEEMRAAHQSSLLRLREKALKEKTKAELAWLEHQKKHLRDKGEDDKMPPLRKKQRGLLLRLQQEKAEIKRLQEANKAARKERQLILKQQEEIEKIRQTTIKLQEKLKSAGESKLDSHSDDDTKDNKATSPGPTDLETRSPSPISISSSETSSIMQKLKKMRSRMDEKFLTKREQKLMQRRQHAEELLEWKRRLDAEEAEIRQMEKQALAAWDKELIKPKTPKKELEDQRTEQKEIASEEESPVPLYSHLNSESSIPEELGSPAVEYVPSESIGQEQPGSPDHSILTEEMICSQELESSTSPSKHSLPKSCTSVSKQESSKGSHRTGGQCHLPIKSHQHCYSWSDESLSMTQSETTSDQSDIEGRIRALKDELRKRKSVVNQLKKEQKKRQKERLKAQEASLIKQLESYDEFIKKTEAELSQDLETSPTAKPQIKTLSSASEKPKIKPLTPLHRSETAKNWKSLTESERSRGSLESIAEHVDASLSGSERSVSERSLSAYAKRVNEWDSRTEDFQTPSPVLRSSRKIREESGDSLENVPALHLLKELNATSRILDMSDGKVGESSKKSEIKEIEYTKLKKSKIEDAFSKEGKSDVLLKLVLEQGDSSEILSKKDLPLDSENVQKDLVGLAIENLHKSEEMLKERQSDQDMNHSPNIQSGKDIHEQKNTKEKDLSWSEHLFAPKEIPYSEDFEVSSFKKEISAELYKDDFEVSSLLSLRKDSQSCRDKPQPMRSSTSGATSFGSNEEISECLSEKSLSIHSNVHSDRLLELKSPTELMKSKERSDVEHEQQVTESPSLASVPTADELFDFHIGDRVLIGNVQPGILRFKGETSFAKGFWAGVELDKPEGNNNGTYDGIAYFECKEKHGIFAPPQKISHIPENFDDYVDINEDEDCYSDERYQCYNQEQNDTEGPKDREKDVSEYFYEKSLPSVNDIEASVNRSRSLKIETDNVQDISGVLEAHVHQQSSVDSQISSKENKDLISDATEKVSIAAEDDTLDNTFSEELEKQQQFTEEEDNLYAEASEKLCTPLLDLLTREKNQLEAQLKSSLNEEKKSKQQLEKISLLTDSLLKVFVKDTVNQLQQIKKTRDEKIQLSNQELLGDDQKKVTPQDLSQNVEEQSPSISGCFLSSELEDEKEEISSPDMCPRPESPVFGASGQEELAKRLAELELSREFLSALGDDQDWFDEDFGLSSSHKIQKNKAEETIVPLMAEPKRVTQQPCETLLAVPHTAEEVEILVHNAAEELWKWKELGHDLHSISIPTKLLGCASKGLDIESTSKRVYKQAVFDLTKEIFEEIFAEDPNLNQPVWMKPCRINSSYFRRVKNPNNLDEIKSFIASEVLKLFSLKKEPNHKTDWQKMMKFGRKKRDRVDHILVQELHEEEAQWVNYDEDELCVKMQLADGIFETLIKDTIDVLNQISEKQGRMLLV
UniProt P23528, whole entry, looked up: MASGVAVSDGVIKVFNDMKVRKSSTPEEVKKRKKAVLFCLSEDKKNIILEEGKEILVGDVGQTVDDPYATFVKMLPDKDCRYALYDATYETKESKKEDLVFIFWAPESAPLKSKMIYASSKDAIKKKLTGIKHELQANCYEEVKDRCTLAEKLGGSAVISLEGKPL
UniProt Q9BS16: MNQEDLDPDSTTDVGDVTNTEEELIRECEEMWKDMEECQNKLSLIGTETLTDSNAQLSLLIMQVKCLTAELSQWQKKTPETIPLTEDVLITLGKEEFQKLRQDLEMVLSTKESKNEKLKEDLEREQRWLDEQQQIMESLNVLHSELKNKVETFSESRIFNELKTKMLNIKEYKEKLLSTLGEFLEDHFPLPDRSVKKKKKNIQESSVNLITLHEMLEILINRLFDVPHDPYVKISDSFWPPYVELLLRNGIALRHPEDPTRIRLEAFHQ
UniProt Q9Y5S2: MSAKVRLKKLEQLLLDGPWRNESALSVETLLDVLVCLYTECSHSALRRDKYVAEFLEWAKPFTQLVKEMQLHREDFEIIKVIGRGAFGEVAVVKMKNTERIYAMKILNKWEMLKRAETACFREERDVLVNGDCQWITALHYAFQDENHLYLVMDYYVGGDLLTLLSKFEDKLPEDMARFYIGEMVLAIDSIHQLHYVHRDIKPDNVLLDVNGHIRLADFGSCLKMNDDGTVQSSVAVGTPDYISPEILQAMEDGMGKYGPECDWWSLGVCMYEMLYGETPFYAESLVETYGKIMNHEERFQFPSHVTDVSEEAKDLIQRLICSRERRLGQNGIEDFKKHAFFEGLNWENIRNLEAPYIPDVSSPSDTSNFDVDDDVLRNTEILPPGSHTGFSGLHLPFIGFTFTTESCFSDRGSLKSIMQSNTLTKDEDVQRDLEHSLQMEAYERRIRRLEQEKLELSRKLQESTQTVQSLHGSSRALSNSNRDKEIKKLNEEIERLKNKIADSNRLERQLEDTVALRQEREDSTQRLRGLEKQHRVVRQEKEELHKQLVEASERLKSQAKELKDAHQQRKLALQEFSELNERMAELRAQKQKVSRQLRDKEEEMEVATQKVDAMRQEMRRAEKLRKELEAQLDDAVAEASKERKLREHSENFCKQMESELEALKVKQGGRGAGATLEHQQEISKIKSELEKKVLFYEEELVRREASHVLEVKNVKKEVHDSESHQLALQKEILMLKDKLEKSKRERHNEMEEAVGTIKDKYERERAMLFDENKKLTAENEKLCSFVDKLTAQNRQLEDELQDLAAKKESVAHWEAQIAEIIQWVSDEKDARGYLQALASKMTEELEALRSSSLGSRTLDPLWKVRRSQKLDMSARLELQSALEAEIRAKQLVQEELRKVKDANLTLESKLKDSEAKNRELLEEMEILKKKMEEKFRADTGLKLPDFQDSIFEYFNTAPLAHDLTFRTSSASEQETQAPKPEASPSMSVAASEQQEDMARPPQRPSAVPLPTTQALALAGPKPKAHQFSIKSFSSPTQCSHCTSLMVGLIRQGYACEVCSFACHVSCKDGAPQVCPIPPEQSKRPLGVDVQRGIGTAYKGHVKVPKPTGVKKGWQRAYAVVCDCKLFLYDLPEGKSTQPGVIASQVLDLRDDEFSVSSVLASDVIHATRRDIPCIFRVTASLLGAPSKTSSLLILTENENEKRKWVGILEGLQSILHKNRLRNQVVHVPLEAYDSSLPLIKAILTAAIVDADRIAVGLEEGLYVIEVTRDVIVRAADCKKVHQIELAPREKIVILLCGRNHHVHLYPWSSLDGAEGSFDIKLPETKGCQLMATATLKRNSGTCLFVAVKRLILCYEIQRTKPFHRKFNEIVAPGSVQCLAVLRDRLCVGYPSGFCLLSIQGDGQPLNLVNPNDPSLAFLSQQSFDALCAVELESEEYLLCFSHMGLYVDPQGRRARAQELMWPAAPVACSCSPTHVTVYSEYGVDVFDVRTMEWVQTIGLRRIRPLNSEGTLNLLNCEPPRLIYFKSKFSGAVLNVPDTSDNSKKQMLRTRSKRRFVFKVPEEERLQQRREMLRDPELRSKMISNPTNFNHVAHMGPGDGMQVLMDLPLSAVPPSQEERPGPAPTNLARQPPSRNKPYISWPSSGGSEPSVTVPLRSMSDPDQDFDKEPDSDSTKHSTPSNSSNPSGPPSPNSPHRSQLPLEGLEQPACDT
UniProt Q5VV42: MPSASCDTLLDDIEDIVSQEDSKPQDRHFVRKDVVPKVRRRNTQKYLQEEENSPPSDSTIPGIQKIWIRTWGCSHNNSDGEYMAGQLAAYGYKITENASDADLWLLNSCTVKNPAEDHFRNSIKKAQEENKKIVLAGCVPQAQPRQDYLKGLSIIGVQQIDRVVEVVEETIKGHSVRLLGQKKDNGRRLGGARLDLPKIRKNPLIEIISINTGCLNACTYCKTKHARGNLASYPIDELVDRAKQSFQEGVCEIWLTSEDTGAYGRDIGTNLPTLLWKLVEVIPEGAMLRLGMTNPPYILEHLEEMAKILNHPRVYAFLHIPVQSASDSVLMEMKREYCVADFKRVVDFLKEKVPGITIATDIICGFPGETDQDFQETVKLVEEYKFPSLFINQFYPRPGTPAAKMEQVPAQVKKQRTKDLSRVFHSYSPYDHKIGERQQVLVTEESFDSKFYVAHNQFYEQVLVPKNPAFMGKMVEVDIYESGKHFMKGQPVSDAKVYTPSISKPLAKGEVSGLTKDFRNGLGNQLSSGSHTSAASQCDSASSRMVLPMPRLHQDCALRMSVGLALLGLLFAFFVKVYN
UniProt Q9UJX2, whole entry, looked up: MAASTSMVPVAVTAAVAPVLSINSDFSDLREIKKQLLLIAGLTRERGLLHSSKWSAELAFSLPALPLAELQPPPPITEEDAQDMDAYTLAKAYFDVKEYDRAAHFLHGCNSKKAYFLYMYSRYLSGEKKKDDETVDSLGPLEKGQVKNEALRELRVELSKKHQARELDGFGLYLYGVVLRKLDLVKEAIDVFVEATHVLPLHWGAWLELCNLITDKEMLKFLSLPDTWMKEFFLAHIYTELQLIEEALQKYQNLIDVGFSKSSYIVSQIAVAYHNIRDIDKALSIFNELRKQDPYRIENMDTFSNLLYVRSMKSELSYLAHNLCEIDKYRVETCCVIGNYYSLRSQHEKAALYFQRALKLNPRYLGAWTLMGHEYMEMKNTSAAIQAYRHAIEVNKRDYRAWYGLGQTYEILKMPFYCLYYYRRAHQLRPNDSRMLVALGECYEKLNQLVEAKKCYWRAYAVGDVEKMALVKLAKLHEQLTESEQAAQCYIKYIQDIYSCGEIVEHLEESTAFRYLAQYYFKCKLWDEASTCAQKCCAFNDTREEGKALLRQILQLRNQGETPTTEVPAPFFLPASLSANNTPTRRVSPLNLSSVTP
UniProt Q8N2Z9: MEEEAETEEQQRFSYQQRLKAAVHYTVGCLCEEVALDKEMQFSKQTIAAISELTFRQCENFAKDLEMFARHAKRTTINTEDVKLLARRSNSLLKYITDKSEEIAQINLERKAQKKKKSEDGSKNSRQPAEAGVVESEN

The targets below were run with CS(=O)(=O)CCNCc1ccc(-c2ccc3ncnc(Nc4ccc(OCc5cccc(F)c5)c(Cl)c4)c3c2)o1 [lapatinib] (assay: log2 fold change, soluble protein after heating vs DMSO (PISA); higher = thermal stabilisation; K562 lysate, 10 uM; active = over 0.2 and 3.5 SD of the protein, either way, in both replicates (recomputed)).
Outline: (§1)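 K562 pellets were dounce-homogenised in PBS pH 7.4 containing 1 mM MgCl2, and the crude extract, at 1 mg/mL protein, was exposed to 10 μM compound for 30 min. Aliquots were heated for 3 min across 48°C-58°C, pooled, brought to 0.5% NP-40 at 4°C and spun at 21,000xg for 90 min, with the supernatant taken as soluble protein. TMTpro 16plex LC-MS/MS with equalised channel sums quantified that protein. Values are log-two fold changes in thermal stability relative to solvent controls, taken from duplicates.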

Target | log2 fold change
CEP350 (UniProt Q5VT06) | inactive: -0.034
CEP170 (UniProt Q5SW79) | inactive: 0.001
CFH (UniProt P08603) | inactive: -0.013
CFL2 (UniProt Q9Y281) | inactive: 0.025
CFDP1 (UniProt Q9UEE9) | inactive: -0.018
CEP97 (UniProt Q8IW35) | inactive: 0.019
CDCA3 (UniProt Q99618) | inactive: 0.014
CDC42 isoform 1 (UniProt P60953) | inactive: 0
CENPH (UniProt Q9H3R5) | inactive: 0.006
CERS2 (UniProt Q96G23) | inactive: -0.158
CDC45 isoform 3 (UniProt O75419) | inactive: -0.036
CFL1 (UniProt P23528) | inactive: 0.022
CENPK (UniProt Q9BS16) | inactive: -0.145
CDCP1 (UniProt Q9H5V8) | inactive: -0.009
CDC26 (UniProt Q8NHZ8) | inactive: 0.011
CENPU (UniProt Q71F23) | inactive: 0.038
CDC42BPB (UniProt Q9Y5S2) | inactive: -0.11

Target | log2 fold change
CEP85 isoform 2 (UniProt Q6P2H3) | inactive: 0.011
CDKAL1 (UniProt Q5VV42) | inactive: -0.004
CEP135 (UniProt Q66GS9) | inactive: -0.017
CDK19 (UniProt Q9BWU1) | inactive: 0.033
CEP76 (UniProt Q8TAP6) | inactive: -0.031
CDIPT (UniProt O14735) | inactive: -0.056
CDR2 (UniProt Q01850) | inactive: -0.04
CDC40 (UniProt O60508) | inactive: -0.028
CDC42 (UniProt P60953) | inactive: -0.038
CETN2 (UniProt P41208) | inactive: 0.017
CDC23 (UniProt Q9UJX2) | inactive: 0.014
CDK2AP1 (UniProt O14519) | inactive: -0.116
CDC37L1 (UniProt Q7L3B6) | inactive: -0.008
CENPS (UniProt Q8N2Z9) | inactive: 0.046
CDC5L (UniProt Q99459) | inactive: 0.004
CERS6 isoform 2 (UniProt Q6ZMG9) | inactive: -0.037

These targets were tested with CS(=O)(=O)N1CCN(Cc2cc3nc(-c4cccc5[nH]ncc45)nc(N4CCOCC4)c3s2)CC1 [pictilisib] in the same assay as above.
Outline: as §1

Target | log2 fold change
CEP350 (UniProt Q5VT06) | inactive: 0.005
CEP170 (UniProt Q5SW79) | inactive: -0.117
CFH (UniProt P08603) | inactive: -0.053
CFL2 (UniProt Q9Y281) | inactive: -0.023
CFDP1 (UniProt Q9UEE9) | inactive: 0.008
CEP97 (UniProt Q8IW35) | inactive: 0.019
CDCA3 (UniProt Q99618) | inactive: 0.007
CDC42 isoform 1 (UniProt P60953) | inactive: -0.016
CENPH (UniProt Q9H3R5) | inactive: -0.018
CERS2 (UniProt Q96G23) | inactive: 0.02
CDC45 isoform 3 (UniProt O75419) | inactive: -0.014
CFL1 (UniProt P23528) | inactive: 0.037
CENPK (UniProt Q9BS16) | inactive: -0.062
CDCP1 (UniProt Q9H5V8) | inactive: -0.063
CDC26 (UniProt Q8NHZ8) | inactive: -0.068
CENPU (UniProt Q71F23) | inactive: -0.005
CDC42BPB (UniProt Q9Y5S2) | inactive: -0.009

Target | log2 fold change
CEP85 isoform 2 (UniProt Q6P2H3) | inactive: -0.029
CDKAL1 (UniProt Q5VV42) | inactive: -0.047
CEP135 (UniProt Q66GS9) | inactive: -0.04
CDK19 (UniProt Q9BWU1) | inactive: -0.218
CEP76 (UniProt Q8TAP6) | inactive: -0.073
CDIPT (UniProt O14735) | inactive: -0.021
CDR2 (UniProt Q01850) | inactive: -0.018
CDC40 (UniProt O60508) | inactive: 0.039
CDC42 (UniProt P60953) | inactive: -0.007
CETN2 (UniProt P41208) | inactive: -0.01
CDC23 (UniProt Q9UJX2) | inactive: -0.026
CDK2AP1 (UniProt O14519) | inactive: -0.032
CDC37L1 (UniProt Q7L3B6) | inactive: -0.024
CENPS (UniProt Q8N2Z9) | inactive: 0.011
CDC5L (UniProt Q99459) | inactive: 0.003
CERS6 isoform 2 (UniProt Q6ZMG9) | inactive: 0

These targets were tested with C[C@@H](Oc1cc(-c2cnn(C3CCNCC3)c2)cnc1N)c1c(Cl)ccc(F)c1Cl [crizotinib] in the same assay as above.
Outline: as §1

Target | log2 fold change
CEP350 (UniProt Q5VT06) | inactive: 0.012
CEP170 (UniProt Q5SW79) | inactive: 0.005
CFH (UniProt P08603) | inactive: 0.014
CFL2 (UniProt Q9Y281) | inactive: -0.058
CFDP1 (UniProt Q9UEE9) | inactive: -0.052
CEP97 (UniProt Q8IW35) | inactive: -0.081
CDCA3 (UniProt Q99618) | inactive: 0.038
CDC42 isoform 1 (UniProt P60953) | inactive: -0.057
CENPH (UniProt Q9H3R5) | inactive: 0.001
CERS2 (UniProt Q96G23) | inactive: 0.033
CDC45 isoform 3 (UniProt O75419) | inactive: -0.009
CFL1 (UniProt P23528) | inactive: 0.046
CENPK (UniProt Q9BS16) | inactive: 0.02
CDCP1 (UniProt Q9H5V8) | inactive: 0.005
CDC26 (UniProt Q8NHZ8) | inactive: -0.056
CENPU (UniProt Q71F23) | inactive: -0.026
CDC42BPB (UniProt Q9Y5S2) | inactive: -0.182

Target | log2 fold change
CEP85 isoform 2 (UniProt Q6P2H3) | inactive: -0.005
CDKAL1 (UniProt Q5VV42) | inactive: -0.009
CEP135 (UniProt Q66GS9) | inactive: -0.014
CDK19 (UniProt Q9BWU1) | inactive: -0.128
CEP76 (UniProt Q8TAP6) | inactive: -0.106
CDIPT (UniProt O14735) | inactive: 0.064
CDR2 (UniProt Q01850) | inactive: -0.012
CDC40 (UniProt O60508) | inactive: -0.053
CDC42 (UniProt P60953) | inactive: -0.023
CETN2 (UniProt P41208) | inactive: 0.095
CDC23 (UniProt Q9UJX2) | inactive: -0.008
CDK2AP1 (UniProt O14519) | inactive: -0.002
CDC37L1 (UniProt Q7L3B6) | inactive: 0.026
CENPS (UniProt Q8N2Z9) | inactive: 0.008
CDC5L (UniProt Q99459) | inactive: -0.02
CERS6 isoform 2 (UniProt Q6ZMG9) | inactive: 0.058
